Reference: the supplement of paper PMC7877785
± gives the uncertainty stated by the source. The uncertainty is large for many entries.

Experiment: self-splicing fitness, log relative to wild type (ln ratio); higher = more splicing; Tetrahymena group I intron in knt gene, E. coli kanamycin selection, DiMSum; sequences stand for … in CUCUCU…GGAGGGAAAAGUUAUCAGGCAUGCACCUGGUAGCUAGUCUUUAAACCAAUAGAUUGCAUCGGUUUAAAAGGCAAGACCGUCAAAUUGCGGGAAAGGGGUCAACAGCCGUUCAGUACCAAGUCUCAGGGGAAACUUUGAGAUGGCCUUGCAAAGGGUAUGGUAAUAAGCUGACGGACAUGGUCCUAACCACGCAGCCAAGUCCUAAGUCAACAGAUCUUCUGUUGAUAUGGAUGCAGUUCACAGACUAAAUGUCGGUCGGGGAAGAUGUAUUCUUCUCAUAAGAUAUAGUCGGACCUCUCCUUAAUGGGAGCUAGCGGAUGAAGUGAUGCAACACUGGAGCCGCUGGGAACUAAUUUGUAUGCGAAAGUAUAUUGAUUAGUUUUGGAGUACUCGUGGUCG
Method in brief: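 Colonies from six replicate transformations of E. coli BL21(DE3) were pooled and amplicon-sequenced on an Illumina HiSeq 2500. The library placed an intron with all eight P1ex-region nucleotides randomised inside the knt kanamycin-resistance gene on pET-22b(+), and cells grew overnight at 37°C or 30°C on LB agar with or without 25 μg/mL kanamycin (plus 100 μg/mL carbenicillin, 50 μM IPTG, 0.2% rhamnose). Fitness is the DiMSum error-weighted combination of wild-type-normalised replicate fold changes, kanamycin versus none.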

Row | Sequence | self-splicing fitness (ln) (30 °C) | self-splicing fitness (ln) (37 °C)
1 | UGAGAGCAAUAUUACGAACC | -2.21 ± 1.1 | -0.265 ± 0.76
2 | CCAGAGCAAUAUUACGUGAC | -3.36 ± 0.19 | -3.93 ± 0.46
3 | GGGGAGCAAUAUUACGAGUU | – | -3.27 ± 0.6
4 | CAAGAGCAAUAUUACGAGGA | -3.17 ± 0.33 | -2.79 ± 0.44
5 | GUCGAGCAAUAUUACGCGGU | -4.21 ± 0.51 | –
6 | CCCAAGCAAUAUUACGAUAC | – | -4.17 ± 0.72
7 | AAAUAGCAAUAUUACGAAGC | – | -3.75 ± 0.59
8 | UGAGAGCAAUAUUACGUGCC | -2.83 ± 0.56 | –
9 | CUUUAGCAAUAUUACGACCA | -2.33 ± 0.56 | -2.16 ± 1.1
10 | UCUUAGCAAUAUUACGAACC | -3.04 ± 0.68 | -1.39 ± 0.87
11 | UACGAGCAAUAUUACGCAAC | -2.85 ± 0.22 | -2.19 ± 0.26
12 | GGAAAGCAAUAUUACGAGAA | -2.96 ± 0.65 | -1.29 ± 0.27
13 | UCAGAGCAAUAUUACGCCUC | – | -1.47 ± 0.87
14 | UUAUAGCAAUAUUACGCCAC | -0.767 ± 0.54 | –
15 | CCGAAGCAAUAUUACGCUUA | -1.32 ± 1.4 | -3.83 ± 1
16 | GUGAAGCAAUAUUACGGAGC | -4.68 ± 0.46 | -1.38 ± 0.16
17 | GCUUAGCAAUAUUACGAAAC | -1.22 ± 0.16 | -0.448 ± 0.24
18 | CGACAGCAAUAUUACGCGAC | -4.48 ± 0.51 | –
19 | GGCCAGCAAUAUUACGUGAA | -1.67 ± 0.066 | -0.271 ± 0.077

Row | Sequence | self-splicing fitness (ln) (30 °C) | self-splicing fitness (ln) (37 °C)
20 | UCGGAGCAAUAUUACGGUUU | -4.29 ± 1 | –
21 | CGGCAGCAAUAUUACGGGCU | -3.81 ± 0.22 | -2.16 ± 0.24
22 | GGUCAGCAAUAUUACGAGGA | -3.47 ± 0.54 | –
23 | ACCUAGCAAUAUUACGCGGG | – | -3.02 ± 0.61
24 | GAUGAGCAAUAUUACGUAGU | – | -2.04 ± 0.56
25 | UGGCAGCAAUAUUACGCGCC | -5.63 ± 0.5 | –
26 | UGGAAGCAAUAUUACGGUCC | -2.67 ± 0.15 | -1.51 ± 0.14
27 | UCAGAGCAAUAUUACGAUAU | -3.12 ± 1.1 | –
28 | UUUGAGCAAUAUUACGGACC | -4.04 ± 1.1 | -2.2 ± 0.79
29 | CGUGAGCAAUAUUACGUCUU | – | -2.15 ± 0.8
30 | GCGUAGCAAUAUUACGCCGA | -3.83 ± 1 | –
31 | CUGCAGCAAUAUUACGAUUC | -4.39 ± 0.51 | –
32 | CAGAAGCAAUAUUACGAACC | -2.15 ± 0.55 | -2.29 ± 1.1
33 | GAGGAGCAAUAUUACGUCGC | -2.26 ± 0.63 | –
34 | UCGCAGCAAUAUUACGGUCC | -4.51 ± 0.58 | –
35 | GUGGAGCAAUAUUACGCGGC | -2.78 ± 0.54 | -2.86 ± 1.1
36 | CGGGAGCAAUAUUACGCUAA | – | -3.15 ± 0.73
37 | GACGAGCAAUAUUACGUCCC | -3.7 ± 1.1 | –
38 | CCGCAGCAAUAUUACGCUGC | -4.56 ± 0.59 | -2.89 ± 1.1

Retrieved one by one from the list above (4):
Row | Sequence | self-splicing fitness (ln) (30 °C) | self-splicing fitness (ln) (37 °C)
21 | CGGCAGCAAUAUUACGGGCU | -3.81 ± 0.22 | -2.16 ± 0.24
37 | GACGAGCAAUAUUACGUCCC | -3.7 ± 1.1 | –
33 | GAGGAGCAAUAUUACGUCGC | -2.26 ± 0.63 | –
32 | CAGAAGCAAUAUUACGAACC | -2.15 ± 0.55 | -2.29 ± 1.1

(listing goes on)

Row | Sequence | self-splicing fitness (ln) (30 °C) | self-splicing fitness (ln) (37 °C)
39 | GGGGAGCAAUAUUACGAGUC | – | -2.54 ± 0.83
40 | UAGUAGCAAUAUUACGAGCU | -3.48 ± 1.1 | –
41 | CGGGAGCAAUAUUACGUCAC | -3.43 ± 0.63 | -1.69 ± 0.59
42 | CCGCAGCAAUAUUACGCUCA | -2.81 ± 0.54 | –
43 | UAUGAGCAAUAUUACGCCCU | -2.48 ± 1.1 | -0.44 ± 1.4
44 | UGCGAGCAAUAUUACGAGAU | -2.4 ± 0.33 | -3.21 ± 0.35
45 | UGUGAGCAAUAUUACGAUAC | -3 ± 0.62 | -3.17 ± 1
46 | CCGUAGCAAUAUUACGUCAC | – | -3.02 ± 0.75
47 | CAAGAGCAAUAUUACGCGGA | -2.87 ± 0.5 | -2.5 ± 0.54
48 | GGAGAGCAAUAUUACGGAUU | -4.8 ± 0.58 | -1.62 ± 0.22
49 | GAGGAGCAAUAUUACGCUGG | – | -4.06 ± 1
50 | UGAGAGCAAUAUUACGGUGC | – | -2.52 ± 1.1
51 | UGCAAGCAAUAUUACGCAAC | -1.9 ± 0.26 | -2.11 ± 0.28
52 | UCAUAGCAAUAUUACGGCUU | -4.38 ± 0.6 | –
53 | ACAAAGCAAUAUUACGUAGC | -2.35 ± 0.086 | -2.01 ± 0.12
54 | ACACAGCAAUAUUACGUGAG | -1.02 ± 0.05 | 0.121 ± 0.074
55 | AAUAAGCAAUAUUACGUGCG | -1.1 ± 0.065 | -0.488 ± 0.083
56 | UCCGAGCAAUAUUACGAACU | – | -2.3 ± 0.32
57 | CUUGAGCAAUAUUACGGCGA | -2.65 ± 1.1 | -0.0848 ± 0.71
